This is an account of results in the supplement of paper PMC10849652.

Sequences of proteins named here, by UniProt entry; tags and fusion partners are left off. A change or cut given only in a name is not applied to a line headed by its entry.
UniProt Q8TAA9: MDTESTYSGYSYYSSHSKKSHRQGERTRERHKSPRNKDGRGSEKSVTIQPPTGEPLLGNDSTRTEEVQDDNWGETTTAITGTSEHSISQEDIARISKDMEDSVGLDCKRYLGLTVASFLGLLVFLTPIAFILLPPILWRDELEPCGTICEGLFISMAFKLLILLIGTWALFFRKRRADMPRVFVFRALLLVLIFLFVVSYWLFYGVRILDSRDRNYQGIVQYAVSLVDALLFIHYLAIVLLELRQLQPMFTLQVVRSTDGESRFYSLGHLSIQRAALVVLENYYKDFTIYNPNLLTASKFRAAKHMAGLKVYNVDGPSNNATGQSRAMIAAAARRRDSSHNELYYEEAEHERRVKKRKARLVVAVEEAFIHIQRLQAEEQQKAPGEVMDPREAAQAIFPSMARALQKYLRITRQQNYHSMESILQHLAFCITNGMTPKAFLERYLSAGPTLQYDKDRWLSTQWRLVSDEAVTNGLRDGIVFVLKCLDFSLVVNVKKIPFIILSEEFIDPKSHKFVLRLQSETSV
UniProt O14957: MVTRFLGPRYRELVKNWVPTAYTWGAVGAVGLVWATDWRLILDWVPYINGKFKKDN
UniProt P14927: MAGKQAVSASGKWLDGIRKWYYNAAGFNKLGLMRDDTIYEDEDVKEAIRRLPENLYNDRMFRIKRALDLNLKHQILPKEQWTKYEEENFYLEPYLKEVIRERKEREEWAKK
UniProt P45974: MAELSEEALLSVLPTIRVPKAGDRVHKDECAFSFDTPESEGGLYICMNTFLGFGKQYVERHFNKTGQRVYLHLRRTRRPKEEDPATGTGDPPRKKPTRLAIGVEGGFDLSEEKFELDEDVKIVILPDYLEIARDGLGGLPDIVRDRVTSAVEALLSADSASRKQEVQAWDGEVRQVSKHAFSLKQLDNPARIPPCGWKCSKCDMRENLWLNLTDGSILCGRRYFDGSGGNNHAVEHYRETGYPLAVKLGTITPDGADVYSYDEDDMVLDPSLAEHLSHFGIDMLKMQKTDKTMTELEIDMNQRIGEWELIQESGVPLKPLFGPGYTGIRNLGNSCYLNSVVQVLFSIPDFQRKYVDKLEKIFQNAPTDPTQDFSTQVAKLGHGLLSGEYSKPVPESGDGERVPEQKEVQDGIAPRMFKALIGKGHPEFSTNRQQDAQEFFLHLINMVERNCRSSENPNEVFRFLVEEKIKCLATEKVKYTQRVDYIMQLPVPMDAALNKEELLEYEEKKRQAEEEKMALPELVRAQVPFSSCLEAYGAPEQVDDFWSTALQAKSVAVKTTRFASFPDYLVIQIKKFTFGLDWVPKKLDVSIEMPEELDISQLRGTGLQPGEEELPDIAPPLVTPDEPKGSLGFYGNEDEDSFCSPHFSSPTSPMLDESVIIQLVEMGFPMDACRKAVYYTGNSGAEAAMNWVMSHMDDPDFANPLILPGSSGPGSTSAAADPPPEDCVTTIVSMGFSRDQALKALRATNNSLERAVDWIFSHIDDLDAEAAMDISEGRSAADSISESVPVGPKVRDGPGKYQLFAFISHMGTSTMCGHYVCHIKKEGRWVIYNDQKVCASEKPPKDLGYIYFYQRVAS
UniProt Q9NYU1: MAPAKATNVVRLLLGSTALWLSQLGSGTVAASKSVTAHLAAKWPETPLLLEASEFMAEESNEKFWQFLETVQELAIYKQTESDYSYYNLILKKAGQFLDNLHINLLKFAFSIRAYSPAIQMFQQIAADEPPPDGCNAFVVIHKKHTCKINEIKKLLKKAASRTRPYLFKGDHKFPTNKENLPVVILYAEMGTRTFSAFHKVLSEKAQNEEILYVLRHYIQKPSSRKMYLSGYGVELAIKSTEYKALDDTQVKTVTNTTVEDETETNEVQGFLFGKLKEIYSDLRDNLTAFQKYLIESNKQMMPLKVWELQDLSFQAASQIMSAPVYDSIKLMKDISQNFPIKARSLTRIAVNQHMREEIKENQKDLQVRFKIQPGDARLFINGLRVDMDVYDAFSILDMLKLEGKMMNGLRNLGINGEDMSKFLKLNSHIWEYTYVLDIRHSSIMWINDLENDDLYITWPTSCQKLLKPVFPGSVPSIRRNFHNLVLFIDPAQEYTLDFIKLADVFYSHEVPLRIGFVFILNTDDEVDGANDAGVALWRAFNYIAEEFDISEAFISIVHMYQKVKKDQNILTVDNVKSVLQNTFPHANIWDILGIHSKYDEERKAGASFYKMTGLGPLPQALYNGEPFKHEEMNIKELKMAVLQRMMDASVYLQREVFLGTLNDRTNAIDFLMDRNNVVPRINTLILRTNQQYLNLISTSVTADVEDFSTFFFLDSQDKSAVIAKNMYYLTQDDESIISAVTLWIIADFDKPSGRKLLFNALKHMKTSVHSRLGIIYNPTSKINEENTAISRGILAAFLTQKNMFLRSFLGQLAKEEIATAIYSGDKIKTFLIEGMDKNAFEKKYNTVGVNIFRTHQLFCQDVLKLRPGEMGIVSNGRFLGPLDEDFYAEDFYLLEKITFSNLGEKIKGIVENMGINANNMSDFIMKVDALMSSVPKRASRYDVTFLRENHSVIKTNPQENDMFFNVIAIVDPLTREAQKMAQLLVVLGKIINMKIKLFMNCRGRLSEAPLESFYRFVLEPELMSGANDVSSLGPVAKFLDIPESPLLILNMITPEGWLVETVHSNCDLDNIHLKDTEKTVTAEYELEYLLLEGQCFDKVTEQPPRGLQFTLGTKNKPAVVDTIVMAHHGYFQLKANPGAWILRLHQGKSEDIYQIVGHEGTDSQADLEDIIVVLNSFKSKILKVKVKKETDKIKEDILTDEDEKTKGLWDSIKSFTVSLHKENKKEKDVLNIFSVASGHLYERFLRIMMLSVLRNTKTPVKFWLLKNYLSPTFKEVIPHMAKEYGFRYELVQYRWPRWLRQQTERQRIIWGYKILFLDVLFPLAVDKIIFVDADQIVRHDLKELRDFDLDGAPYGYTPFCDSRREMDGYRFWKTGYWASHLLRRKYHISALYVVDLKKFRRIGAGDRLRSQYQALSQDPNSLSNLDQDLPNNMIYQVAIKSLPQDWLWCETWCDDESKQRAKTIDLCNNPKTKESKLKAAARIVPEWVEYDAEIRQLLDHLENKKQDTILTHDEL
UniProt P07919: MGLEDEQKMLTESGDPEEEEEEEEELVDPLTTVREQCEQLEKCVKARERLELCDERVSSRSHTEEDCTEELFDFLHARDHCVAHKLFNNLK
UniProt P63027, whole entry, looked up: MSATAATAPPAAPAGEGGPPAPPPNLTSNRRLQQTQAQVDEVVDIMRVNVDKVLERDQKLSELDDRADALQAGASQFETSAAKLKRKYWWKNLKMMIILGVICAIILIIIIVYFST
UniProt O94874: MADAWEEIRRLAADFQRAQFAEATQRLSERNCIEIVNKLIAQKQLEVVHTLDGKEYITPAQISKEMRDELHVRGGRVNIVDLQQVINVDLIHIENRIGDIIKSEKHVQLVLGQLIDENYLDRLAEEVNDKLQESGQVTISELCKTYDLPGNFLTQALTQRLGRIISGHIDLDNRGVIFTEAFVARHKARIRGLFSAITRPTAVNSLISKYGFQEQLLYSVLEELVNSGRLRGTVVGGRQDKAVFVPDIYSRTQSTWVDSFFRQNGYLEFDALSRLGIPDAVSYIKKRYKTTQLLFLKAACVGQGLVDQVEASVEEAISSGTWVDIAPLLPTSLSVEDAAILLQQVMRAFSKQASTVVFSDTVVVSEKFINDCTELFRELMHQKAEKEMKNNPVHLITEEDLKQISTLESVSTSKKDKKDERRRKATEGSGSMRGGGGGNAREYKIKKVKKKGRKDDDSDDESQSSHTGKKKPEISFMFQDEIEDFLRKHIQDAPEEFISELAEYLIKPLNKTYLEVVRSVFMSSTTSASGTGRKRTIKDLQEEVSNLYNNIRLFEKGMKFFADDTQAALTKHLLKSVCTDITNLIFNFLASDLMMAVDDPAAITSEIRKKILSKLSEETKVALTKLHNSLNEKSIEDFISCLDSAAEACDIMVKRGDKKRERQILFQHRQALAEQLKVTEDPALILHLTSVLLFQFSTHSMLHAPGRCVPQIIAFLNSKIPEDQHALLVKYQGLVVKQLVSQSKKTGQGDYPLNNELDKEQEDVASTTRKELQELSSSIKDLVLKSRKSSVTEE
UniProt Q13107: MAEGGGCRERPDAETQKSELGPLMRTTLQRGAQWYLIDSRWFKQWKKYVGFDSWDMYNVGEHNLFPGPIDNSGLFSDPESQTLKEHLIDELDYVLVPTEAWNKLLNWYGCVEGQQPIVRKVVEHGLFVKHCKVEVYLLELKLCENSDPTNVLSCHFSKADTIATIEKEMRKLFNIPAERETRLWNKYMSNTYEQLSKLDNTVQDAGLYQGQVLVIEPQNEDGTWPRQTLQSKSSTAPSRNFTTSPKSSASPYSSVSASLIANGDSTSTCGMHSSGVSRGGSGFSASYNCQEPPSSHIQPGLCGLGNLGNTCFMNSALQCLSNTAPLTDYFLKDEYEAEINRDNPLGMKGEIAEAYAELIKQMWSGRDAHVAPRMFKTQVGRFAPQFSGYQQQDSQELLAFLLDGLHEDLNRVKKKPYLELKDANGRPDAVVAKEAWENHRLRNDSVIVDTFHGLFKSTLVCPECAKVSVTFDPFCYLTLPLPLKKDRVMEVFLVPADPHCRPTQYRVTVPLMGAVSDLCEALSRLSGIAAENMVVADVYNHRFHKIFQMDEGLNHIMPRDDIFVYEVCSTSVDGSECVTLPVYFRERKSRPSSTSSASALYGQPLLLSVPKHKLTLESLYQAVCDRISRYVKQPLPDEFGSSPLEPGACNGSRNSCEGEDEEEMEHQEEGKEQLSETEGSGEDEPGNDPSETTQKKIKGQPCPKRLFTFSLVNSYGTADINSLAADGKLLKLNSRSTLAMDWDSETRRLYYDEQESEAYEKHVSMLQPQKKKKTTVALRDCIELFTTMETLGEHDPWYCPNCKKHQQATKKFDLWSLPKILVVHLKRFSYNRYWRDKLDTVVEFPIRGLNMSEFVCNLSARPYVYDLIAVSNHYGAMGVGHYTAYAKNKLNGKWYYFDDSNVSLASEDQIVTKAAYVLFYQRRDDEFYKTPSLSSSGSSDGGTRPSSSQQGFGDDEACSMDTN
UniProt Q8NBZ7: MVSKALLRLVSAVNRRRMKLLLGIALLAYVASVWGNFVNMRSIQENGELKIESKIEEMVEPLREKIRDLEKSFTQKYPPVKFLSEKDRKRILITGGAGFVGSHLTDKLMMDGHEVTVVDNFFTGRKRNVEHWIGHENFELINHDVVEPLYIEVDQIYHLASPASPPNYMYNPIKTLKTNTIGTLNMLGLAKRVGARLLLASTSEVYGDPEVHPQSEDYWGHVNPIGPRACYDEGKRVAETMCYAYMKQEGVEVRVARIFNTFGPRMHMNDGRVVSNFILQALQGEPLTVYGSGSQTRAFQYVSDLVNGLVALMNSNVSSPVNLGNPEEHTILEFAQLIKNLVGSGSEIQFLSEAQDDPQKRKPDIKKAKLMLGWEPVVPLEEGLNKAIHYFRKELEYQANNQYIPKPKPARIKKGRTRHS
UniProt Q86UV5: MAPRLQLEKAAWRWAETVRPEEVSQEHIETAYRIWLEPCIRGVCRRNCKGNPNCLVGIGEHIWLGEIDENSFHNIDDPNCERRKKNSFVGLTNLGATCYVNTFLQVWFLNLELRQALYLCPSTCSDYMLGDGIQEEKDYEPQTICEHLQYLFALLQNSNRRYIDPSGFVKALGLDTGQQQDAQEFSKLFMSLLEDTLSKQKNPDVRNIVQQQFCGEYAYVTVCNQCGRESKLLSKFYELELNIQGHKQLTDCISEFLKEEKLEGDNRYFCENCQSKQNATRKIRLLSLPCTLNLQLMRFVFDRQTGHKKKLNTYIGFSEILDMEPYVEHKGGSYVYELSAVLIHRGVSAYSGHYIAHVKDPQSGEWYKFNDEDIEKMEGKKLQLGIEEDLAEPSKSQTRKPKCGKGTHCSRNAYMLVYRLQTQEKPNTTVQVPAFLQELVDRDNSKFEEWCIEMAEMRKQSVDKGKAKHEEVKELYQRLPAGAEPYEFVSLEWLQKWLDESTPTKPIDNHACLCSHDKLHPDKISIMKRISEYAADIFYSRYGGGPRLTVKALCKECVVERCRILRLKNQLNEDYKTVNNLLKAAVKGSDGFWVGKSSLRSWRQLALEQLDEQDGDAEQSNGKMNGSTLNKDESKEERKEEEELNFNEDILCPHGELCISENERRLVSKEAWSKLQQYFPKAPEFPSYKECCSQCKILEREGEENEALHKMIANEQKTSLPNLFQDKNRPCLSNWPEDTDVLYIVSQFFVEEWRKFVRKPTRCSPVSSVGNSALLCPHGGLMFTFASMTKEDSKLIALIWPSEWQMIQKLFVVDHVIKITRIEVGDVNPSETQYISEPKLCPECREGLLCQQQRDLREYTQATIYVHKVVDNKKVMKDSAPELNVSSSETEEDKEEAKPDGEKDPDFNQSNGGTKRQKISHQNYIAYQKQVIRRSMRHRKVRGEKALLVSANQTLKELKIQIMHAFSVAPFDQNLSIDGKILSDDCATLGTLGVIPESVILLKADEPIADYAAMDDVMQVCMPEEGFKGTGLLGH

This is one part of the list.

Compound in the test: Cc1ccc(-n2nc(C(C)(C)C)cc2NC(=O)Nc2ccc(OCCN3CCOCC3)c3ccccc23)cc1 [doramapimod]
Kind of test: log2 fold change, soluble protein after heating vs DMSO (PISA); higher = thermal stabilisation; K562 lysate, 10 uM; active = over 0.2 and 3.5 SD of the protein, either way, in both replicates (recomputed). Put shortly: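 Values give the log-two fold change in thermal stability against solvent controls, from duplicates. Crude K562 extract at 1 mg/mL protein, made by dounce homogenisation in PBS pH 7.4 with 1 mM MgCl2, was treated with 10 μM compound for 30 min. After 3 min heating across 48°C-58°C, aliquots were pooled, adjusted to 0.5% NP-40 at 4°C and centrifuged at 21,000xg for 90 min. The supernatant was measured by TMTpro 16plex LC-MS/MS with channel sums equalised.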
As for UGDH (UniProt O60701), the log2 fold change was inactive: -0.053.
The figure for USP32 (UniProt Q8NFA0) is inactive: -0.046.
For VIRMA (UniProt Q69YN4), the log2 fold change was inactive: 0.029.
On to UFD1 isoform 1 (UniProt Q92890), for which the log2 fold change was inactive: 0.041.
With VANGL1 (UniProt Q8TAA9), the log2 fold change was inactive: -0.043.
Regarding VARS2, A0A0G2JL52, the log2 fold change was inactive: 0.012.
The figure for UFC1 (UniProt Q9Y3C8) is inactive: -0.041; for UQCR11 (UniProt O14957) it is inactive: 0.016.
Turning to UIMC1 (UniProt Q96RL1), the log2 fold change is inactive: -0.004.
On to UTP6 (UniProt Q9NYH9), for which the log2 fold change was inactive: -0.023.
The figure for UQCRB (UniProt P14927) is inactive: 0.022; for USP5 isoform 2 (UniProt P45974) it is inactive: 0.015.
The figure for UGGT2 (UniProt Q9NYU1) is inactive: -0.001; for UQCRH (UniProt P07919) it is inactive: -0.021; for VCP (UniProt P55072) it is inactive: 0.001.
For UHRF1BP1 (UniProt Q6BDS2), the log2 fold change was inactive: 0.025.
Regarding UNC5B (UniProt Q8IZJ1), the log2 fold change was inactive: -0.026.
VCX3B (UniProt Q9H321): the log2 fold change is inactive: -0.04.
Consider UHRF1BP1L (UniProt A0JNW5), for which the log2 fold change was inactive: -0.001.
The figure for UNC45A (UniProt Q9H3U1) is inactive: 0.027; for UPF3B (UniProt Q9BZI7) it is inactive: 0.003.
For UGGT1 (UniProt Q9NYU2), the log2 fold change was inactive: -0.002.
As for VAMP2 (UniProt P63027), the log2 fold change was inactive: -0.083.
As to USP1 (UniProt O94782), the log2 fold change is inactive: 0.021.
Take USP13 (UniProt Q92995): the log2 fold change is inactive: -0.044.
As to UFL1 (UniProt O94874), the log2 fold change is inactive: 0.007.
Regarding USP4 (UniProt Q13107), the log2 fold change was inactive: 0.038.
The figure for VARS (UniProt P26640) is inactive: 0.022; for ULBP2 (UniProt Q9BZM5) it is inactive: 0.002; for UXS1 isoform 2 (UniProt Q8NBZ7) it is inactive: -0.006.
Take USE1 (UniProt Q9NZ43): the log2 fold change was inactive: 0.112.
The figure for USP48 isoform 8 (UniProt Q86UV5) is inactive: 0.024.
